Measurements as given in EP4314010B1, “MODIFIED PEPTIDOMIMETICS AND METHODS OF USE” (dated 2026).
The match of structure and compound is tentative.

Chains of the proteins cited; added tags and fusions are not shown. Lines headed by an entry give the natural chain unless they say otherwise; changes in a name come on top. Residues count along the entry.
UniProt P08246, 30-267 limits assumed: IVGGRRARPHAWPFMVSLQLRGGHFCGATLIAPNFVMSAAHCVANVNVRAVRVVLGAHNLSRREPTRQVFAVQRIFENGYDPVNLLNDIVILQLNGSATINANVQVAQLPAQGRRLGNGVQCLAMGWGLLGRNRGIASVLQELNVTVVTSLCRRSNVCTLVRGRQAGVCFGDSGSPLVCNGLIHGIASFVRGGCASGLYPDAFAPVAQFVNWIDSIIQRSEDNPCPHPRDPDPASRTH
UniProt Q96D31, whole entry: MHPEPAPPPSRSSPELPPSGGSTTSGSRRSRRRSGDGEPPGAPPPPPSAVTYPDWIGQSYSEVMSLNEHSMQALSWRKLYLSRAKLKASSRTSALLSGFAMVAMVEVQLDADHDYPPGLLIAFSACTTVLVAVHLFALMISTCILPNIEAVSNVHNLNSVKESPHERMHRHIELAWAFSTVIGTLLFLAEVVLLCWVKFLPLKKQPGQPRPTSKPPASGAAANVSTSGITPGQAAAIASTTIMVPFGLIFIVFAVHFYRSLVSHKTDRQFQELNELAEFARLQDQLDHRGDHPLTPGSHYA

How the values were obtained:
neutrophil elastase = neutrophil elastase (Homo sapiens, UniProt P08246); experiment: Neutrophil elastase degradation, stopped with sivelestat, HPLC; settings: for resistance to neutrophil elastase degradation: incubated with neutrophil elastase
Method: (§1) HEK293T cells were plated and incubated for 2 hours with Fluo-4 plus or minus ELD peptides, with fluorescent images taken every 30 seconds for 2-6 minutes at excitation/emission wavelengths of 488/530 nm. […] Candidate peptides ELD604 (not claimed), 607 (claimed), 601 (not claimed), and 100 (reference) were tested for resistance against protease degradation, wherein the peptides were incubated with neutrophil elastase, treated with the elastase inhibitor sivelestat at various timepoints to halt ongoing reactions, and then analyzed by HPLC (FIG. 9).
These peptides were not degraded by trypsin. Neutrophil elastase, which is one of the major proteases in the CF lung, was also tested. ELD601 was the shortest peptides generated and lacked valines, which are a substrate for neutrophil elastase. Also made was ELD604 (not claimed), which is ELD601 flanked with D-alanines to prevent exoproteases. […] Despite lacking valines, ELD601 was still degraded by elastase.
(§2) Endogenous Orai1/store operated Ca^2+ influx have been extensively studied in HEK293T cells, so this cell type was used to understand ELD607-Orai1 interactions. […] Thapsigargin is a SERCA pump inhibitor that prevents uptake of cytosolic Ca^2+ into the endoplasmic reticulum. Thapsigargin is commonly used to stimulate Orai1/store operated Ca^2+ influx. […] Dynamic light scattering (DLS) was used to evaluate binding of ELD607 to peptides of Orai1 extracellular loops. […] Thus, it was concluded that ELD607 interacts with Orai1.

HEK293T cells [1] = experiment: Cytoplasmic Ca2+ (Fluo-4) in HEK293T cells incubated with ELD peptides; settings: 2 hours with Fluo-4 plus or minus peptide, compared to a control scrambled peptide
Method: as §1

[2] = Stability in sputum (HPLC or mass spectrometry); settings: normal and CF sputum supernatant, 6 h at 37°C
Method: The reference ELD100 peptide was incubated overnight in cystic fibrosis (CF) patient sputum, size-fractionated and then analyzed by mass spectrometry without tryptic digest. […] ELD100 contained 16 residues. A series of peptides were generated including N-terminal, C-terminal and mid-peptide deletions to fully-optimize the peptide's size. […] Using this approach, a library was generated to fully optimize ELD100. […] The amino acid sequence modifications included alanine scanning, conservative mutations, shorter sequences and N- and C- terminus modifications (D-ala and Ser additions).
ELD607 is stable in CF sputum. CF sputum is highly proteolytic and SPLUNC1 is rapidly degraded in CF sputum. Therefore, it was tested whether ELD607 was stable in CF sputum. ELD607 was incubated with CF sputum supernatant for 6 h at 37°C, and then the reaction was halted by passing the sputum and ELD607 through a 10 kDa cut off spin column at 4°C. Using HPLC, a peak could be detected that corresponded to ELD607 (FIG. 11 panel A). […] To determine whether ELD607 remained functional after exposure to CF sputum, ELD607 that had been incubated for 6 h in either PBS or CF sputum was added to HEK293T cells. Consistent with ELD607 being stable in CF sputum, this peptide retained full functionality and was fully able to inhibit Ca^2+ influx even after pre-exposure to CF sputum (FIG. 11 panel C). […]

HEK293T cells [3] = experiment: Thapsigargin Fluo-4 response in HEK293T cells after peptide pre-incubation in CF sputum; settings: peptide incubated 6 h in CF sputum, then added to HEK293T cells
Method: (§3) During infection, increased SOCE and Orai1 activity leads to greater phosphorylation of Ca^2+-sensitive kinases (e.g., calcineurin) and activation of transcription factors (e.g., NFAT) leading to a pro-inflammatory response. […] The results were normalized to the baseline. Thapsigargin (Tg) at 1 µM was used as control. The inhibition of Ca^2+ release after scaffold peptide (ELD100; reference) addition is shown for comparison. […] The results were normalized to the baseline. Thapsigargin (Tg) at 1 µM was used as control. The inhibition of Ca^2+ release after ELD100 (reference) addition is shown for comparison. […] The results were normalized to the baseline. Thapsigargin (Tg) at 1 µM was used as control. The inhibition of Ca^2+ release after ELD100 (reference) addition is shown for comparison. […] The results were normalized to the baseline. Thapsigargin (Tg) at 1 µM was used as control. The inhibition of Ca^2+ release after ELD100 (reference) addition is shown for comparison. […] 1 h later, thapsigargin was added and the change in Fluo-4 fluorescence was measured. […] HEK293T cells were transfected with anti-Orai1 shRNA for 48 h and the change in Fluo4 fluorescence was measured. […] FIG. 16G panels B and C show plots showing fluorescence intensities of Orai1 in macrophages and neutrophils, respectively. *** p<0.001 different as indicated. […]

Orai1 [4] = target: T1, Orai1 (Homo sapiens, UniProt Q96D31); experiment: Thapsigargin / Ca2+ add back assay (ER release vs SOCE) in HEK293T cells
Method: as §3

Orai1 [5] = target: T1, Orai1; experiment: Store operated Ca2+ influx in HEK293T cells (Example 2); settings: α6 and ELD607 combined
Excerpt: as §2

[6] = target: Orai1 extracellular peptide 1 (OP1) (Homo sapiens, UniProt Q96D31); experiment: Dynamic light scattering binding to Orai1 extracellular loop peptide OP1; settings: Orai1 amino acids 106-119
Excerpt: as §2

[7] = Stability in ARDS patient BAL samples; settings: 8 h, 37°C
Method: ELD607 is active in ARDS patient immune cells. Pulmonary neutrophilic inflammation and increased lung neutrophil elastase levels are common in ARDS patient lungs. We therefore evaluated whether ELD607 remained stable in BAL samples patients with ARDS caused by bacterial pneumonia. Consistent with ELD607 showing increased resistance to neutrophil elastase (FIG. 25, panel A), ELD607 remained stable over 8 h in ARDS BAL samples at 37°C (FIG. 27, panel A).

[8] = tested on: immune cells of ARDS/bacterial pneumonia patients; experiment: Thapsigargin-induced cytosolic Ca2+ (Fluo-4) in immune cells from ARDS/bacterial pneumonia patients; settings: tracheal aspirate immune cells, 1 h exposure
Method: We next obtained tracheal aspirates from intubated ARDS/bacterial pneumonia patients. We immediately isolated immune cells from these samples and simultaneously loaded them with the Ca^2+ dye Fluo-4 and exposed them to vehicle, ELD607 or scrambled peptide for 1 h. Thapsigargin elevated cytosolic Ca^2+ after vehicle or scrambled peptide exposure, but not after exposure to ELD607 (FIG. 27, panel C).

Orai1 [9] = target: T1, Orai1; experiment: Orai1 immunocytochemistry in immune cells of ARDS/bacterial pneumonia patients; settings: paired samples of patient immune cells
Excerpt: We then performed Orai1 immunocytochemistry on paired samples of immune cells of ARDS/bacterial pneumonia patients. Cells derived from each patient were exposed to either vehicle, ELD607, or scrambled ELD607 (FIG. 27, panels D and E).

HEK294 T cells = experiment: Cytotoxicity, calcein, plate reader; settings: 100 µM, 24 h
Method: ELD607 is non-toxic in vitro and in vivo. To investigate potential cytotoxic effects of ELD607, HEK294 T cells were exposed to 100 µM ELD607 for 24 h. Cytotoxicity was assessed by exposing cells to calcein to label live cells and fluorescence read by multi-plate reader. […] Primary human bronchial epithelial cultures were exposed to 1 mM ELD607 or vehicle control (saline) for 24 h. Cytotoxicity was assessed by confocal microscopy using calcein and propidium iodide to label live and dead cells respectively. […] Transepithelial resistance was also measured before and after treatment as a measure of epithelial integrity. No differences were found between vehicle and ELD607 treated epithelia (FIG. 28, panel D).

[10] = Repeated intratracheal dosing safety study; settings: intratracheally 10 mg/kg daily for 7 days
Method: To assess the pharmacokinetics and safety of ELD607 in vivo, mice were treated intratracheally with 10 mg/kg ELD607 daily for 7 days. Mice were sacrificed at 7 days posttreatment.

[11] = SCNN1B (βENaC) overexpressing mice, chronic pulmonary inflammation; settings: intranasal daily for 11 days
Method: as §3

[12] = House dust mite allergic lung inflammation model; settings: HDM 14 days; 0.5 mg/kg intranasally for 2 days before sacrifice
Method: During infection, increased SOCE and Orai1 activity leads to greater phosphorylation of Ca^2+-sensitive kinases (e.g., calcineurin) and activation of transcription factors (e.g., NFAT) leading to a pro-inflammatory response. […] The results were normalized to the baseline. Thapsigargin (Tg) at 1 µM was used as control. The inhibition of Ca^2+ release after scaffold peptide (ELD100; reference) addition is shown for comparison. […] The results were normalized to the baseline. Thapsigargin (Tg) at 1 µM was used as control. The inhibition of Ca^2+ release after ELD100 (reference) addition is shown for comparison. […] The results were normalized to the baseline. Thapsigargin (Tg) at 1 µM was used as control. The inhibition of Ca^2+ release after ELD100 (reference) addition is shown for comparison. […] The results were normalized to the baseline. Thapsigargin (Tg) at 1 µM was used as control. The inhibition of Ca^2+ release after ELD100 (reference) addition is shown for comparison. […] Peptides were exposed to NE over time, and the reaction was stopped by addition of sivelestat. HPLC was then performed in order to determine peptide stability. […] 1 h later, thapsigargin was added and the change in Fluo-4 fluorescence was measured. […] HEK293T cells were transfected with anti-Orai1 shRNA for 48 h and the change in Fluo4 fluorescence was measured. […] 100 nM thapsigargin was then added followed by extracellular Ca^2+ to differentiate ER Ca^2+ release and SOCE. n=8-12 cultures per data point. • FIGS. 15A-15D show (FIG. 15A) a schematic of a murine model of P. aeruginosa (top left panel), and bar graphs of (FIG. 15B) BAL monocytes, (FIG. 15C) BAL neutrophils, and (FIG. 15D) bacterial counts in whole lung at 24 hours quantified following experiments according to the mouse model as schematized and conditions as noted on the x-axis. • FIGS. 16A-16G show data from further P. aeruginosa infection experiments. […] FIG. 16G panels B and C show plots showing fluorescence intensities of Orai1 in macrophages and neutrophils, respectively. *** p<0.001 different as indicated. […]

Structure (SMILES): CC[C@H](C)[C@H](NC(=O)[C@H](CC(C)C)NC(=O)[C@H](CCSC)NC(=O)[C@H](CC(N)=O)NC(=O)[C@@H](NC(=O)[C@H](CC(=O)O)NC(=O)[C@@H](N)Cc1c[nH]cn1)[C@@H](C)CC)C(=O)N[C@@H](Cc1c[nH]cn1)C(=O)NCC(=O)O
- resistance to neutrophil elastase degradation (neutrophil elastase): still degraded by elastase

Structure (SMILES): CC[C@H](C)[C@H](NC(=O)[C@H](CC(C)C)NC(=O)[C@H](CCSC)NC(=O)[C@H](CC(N)=O)NC(=O)[C@@H](NC(=O)[C@@H](NC(=O)[C@H](CC(=O)O)NC(=O)[C@H](Cc1c[nH]cn1)NC(=O)[C@@H](N)C(C)C)[C@@H](C)CC)C(C)C)C(=O)N[C@@H](CCCNC(=N)N)C(=O)NCC(=O)O
- cytoplasmic Ca^2+ (HEK293T cells [1]): reduced cytoplasmic calcium levels
- stability after exposure to human neutrophil elastase relative to α6 (neutrophil elastase; compared with α6): four times more stable
- resistance to neutrophil elastase degradation (neutrophil elastase): significant increase in stability
- stability in sputum (HPLC area under the curve) [2]: Neither normal nor CF sputum diminished the area under the curve
- inhibition of Ca^2+ influx after pre-exposure to CF sputum (HEK293T cells [3]): retained full functionality
- Ca^2+ homeostasis after shRNA knockdown of Orai1 (Orai1 [4]; HEK293T cells transfected with anti-Orai1 shRNA): no longer able to affect Ca^2+ homeostasis
- thapsigargin-stimulated Ca^2+ release from the ER (Orai1 [4]; absence of extracellular Ca^2+): no effect
- additivity of inhibitory effects on thapsigargin-induced elevations in cytosolic Ca^2+ (Orai1 [5]): not additive
- interaction with OP1 (Z-average, DLS) [6]: significant interactions
- stability in ARDS BAL samples [7]: remained stable over 8 h
- thapsigargin elevation of cytosolic Ca^2+ [8]: but not after exposure to ELD607
- Orai1 levels (immunocytochemistry) (Orai1 [9]): significant reduction in Orai 1 levels
- cytotoxicity (calcein fluorescence) (HEK294 T cells): not significantly different to vehicle control
- body weight [10]: did not induce any changes
- lung histology [10]: did not induce any changes in lung histology
- BAL cells in WT littermate mice [11]: no effect on WT mice
- BAL eosinophilia [12]: significantly reduced
- BAL macrophages [12]: increased BAL macrophages
- BAL neutrophilia [12]: significantly reduced BAL neutrophilia
